According to CN114805568A:
These are yes or no findings as the source states them, for the method shown. Some entries that bind do so weakly or less than the wild type.

The chains behind the UniProt entries cited, without tags or fusion partners. Where a name states a change or a piece, a line headed by the entry shows the natural chain unless it says otherwise.
UniProt Q8N423: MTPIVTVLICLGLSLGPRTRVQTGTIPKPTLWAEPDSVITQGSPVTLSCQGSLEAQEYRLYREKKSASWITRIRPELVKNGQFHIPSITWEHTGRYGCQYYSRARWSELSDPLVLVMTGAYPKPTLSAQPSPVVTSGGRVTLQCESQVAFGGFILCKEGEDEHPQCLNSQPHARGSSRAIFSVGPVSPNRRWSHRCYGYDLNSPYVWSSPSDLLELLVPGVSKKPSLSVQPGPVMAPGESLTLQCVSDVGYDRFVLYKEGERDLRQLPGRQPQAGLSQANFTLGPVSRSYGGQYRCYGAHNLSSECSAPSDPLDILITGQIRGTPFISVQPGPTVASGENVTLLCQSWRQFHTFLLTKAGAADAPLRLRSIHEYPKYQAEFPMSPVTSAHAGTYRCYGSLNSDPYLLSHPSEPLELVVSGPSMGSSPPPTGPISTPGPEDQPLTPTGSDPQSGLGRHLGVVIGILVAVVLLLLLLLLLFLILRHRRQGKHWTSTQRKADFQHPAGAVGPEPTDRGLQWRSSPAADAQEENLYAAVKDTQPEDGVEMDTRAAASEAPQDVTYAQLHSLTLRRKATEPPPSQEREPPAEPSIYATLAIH

Experiments:
[1] = molecular target: Biotinylated-LILRB2(Acro,Cat.LI2-H82F5) (human) (UniProt Q8N423); assay: phage display, liquid-phase panning and identification
[2] = molecular target: 人LILRB2重组蛋白(KN表达) (human) (UniProt Q8N423); assay: ELISA, coated human LILRB2, antibody at 10 ug/ml

Row | binding [1] | binding [2] | Binder
1 | binds | – | B9 (VHH) VHH: QVQLQESGGGSVQAGGSLRLSCAASGYTDSRYCMGWFRQVPGKEREKVATIYNGDGNTYYDDSVKGRFTISQGNAKNTLFLEMNNLKPEDTAMYYCAAIKAYGSNWCPAVEYSDWGQGTQVTVSS
2 | binds | – | C7 (VHH) VHH: QVQLQESGGGLVQAGGSLRLSCAASEYTDSRYCMAWFRQVPGKEREKVAIIYNGDGNTYYDDSVKGRFTISQSVAKNTLYLQMNNLKPEDTGMYYCAAIKAYGSNWCRAVEYSDWGQGTQVTVSS
3 | binds | – | A7 (VHH) VHH: QVQLQESGGGSVQPGGRLRLSCETSGYTSSRNWMGWFRQAPGKEREGVASIYTDNGSAYYADSVKGRFTISVDNAKNTVYLQMNSLKPEDTAMYYCAGRIRPPAGTRWPGPLVESAYNTWGRGTQVTVSS
4 | – | binds | JTX-8064 (antibody, V domains shown) VH: QITLKESGPTLVKPTQTLTLTCTFSGFSLNTYAMGVSWIRQPPGKALEWLASIWWNGNKYNNPSLKSRLTVTKDTSKNQVVLTMTNMDPVDTATYYCAHSRIIRFTDYVMDAWGQGTLVTVSS VL: DIQMTQSPSSLSTSVGDRVTITCRASEDIYNDLAWYQQKPGKAPKLLIYNANSLHTGVASRFSGSGSGTDFTFTISSLQPEDVATYFCQQYYDYPLTFGQGTKLEIK

The next lines start with the binder.

Row | Binder | binding [1] | binding [2]
5 | G3 (VHH) VHH: QVQLQESGGGSVQAGGSLRLSCAASGYPRSSVCMGWYRQAPGKEREGVAAIFTGGGRPYYADSVKGRFTISQDNAVNTVSLQMNNLKPEDTAMYYCAAELTYCSGGPWTDPVGYWGQGTQVTVSS | binds | –
6 | E5 (VHH) VHH: QVQLQESGGGSVQAGGSLRLSCVASGYPRSSVCMGWYRQAPGKEREGVAAIFTGGGTPYYGDSVKGRFTISQDNAVNTVSLQMNDLKPEDTAMYYCAVELTYCSGGPWTDPVGYWGQGTQVTVSS | binds | –
7 | A3 (VHH) VHH: QVQLQESGGGLVQAGGSLTLSCAVSGISFGTRAMAWFRQAPGKEREGVASIQADTYISYADSVKGRFTISKDSGKNTLNLQMNNLKPEDTAVYYCAVGDLWGSHLQPHGYNYWGQGTQVTVSS | binds | –
